Test results published in the supplement of paper PMC4604168 (melanoma cell lines).
Some of the results follow. Many values rest on one well or one pass, so single values are uncertain.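 The apoptosis fraction was the count of cleaved-PARP antibody-stained nuclei relative to all DNA-stained nuclei, imaged in 1,536-well plates. Screening doses were set so most cells survived, and baseline and induced cleaved-PARP levels vary greatly across cell lines.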

How the values were obtained:
Assay in all cases: cleaved PARP positive nuclei fraction relative to DMSO control; melanoma cells; higher = more apoptosis
Conditions in all cases: library dose: low library concentration; 72 h
[1] = tested on: MZ2-MEL
[2] = tested on: MeWo
[3] = tested on: RPMI7951
[4] = tested on: RVH-421
[5] = tested on: SkMel28
[6] = tested on: SkMel2
[7] = tested on: SkMel30
[8] = tested on: UACC62
[9] = tested on: WM115
[10] = tested on: WM1716
[11] = tested on: WM1745
[12] = tested on: WM3526
[13] = tested on: WM3619
[14] = tested on: WM451Lu
[15] = tested on: SkMel5
[16] = tested on: UACC257

Row | Structure (SMILES) | cleaved PARP positive nuclei fraction [1] [%] | cleaved PARP positive nuclei fraction [2] [%] | cleaved PARP positive nuclei fraction [3] [%] | cleaved PARP positive nuclei fraction [4] [%] | cleaved PARP positive nuclei fraction [5] [%] | cleaved PARP positive nuclei fraction [6] [%] | cleaved PARP positive nuclei fraction [7] [%] | cleaved PARP positive nuclei fraction [8] [%] | cleaved PARP positive nuclei fraction [9] [%] | cleaved PARP positive nuclei fraction [10] [%] | cleaved PARP positive nuclei fraction [11] [%] | cleaved PARP positive nuclei fraction [12] [%] | cleaved PARP positive nuclei fraction [13] [%] | cleaved PARP positive nuclei fraction [14] [%] | cleaved PARP positive nuclei fraction [15] [%] | cleaved PARP positive nuclei fraction [16] [%]
1 | Nc1cccc2c1CN(C1CCC(=O)NC1=O)C2=O (stereo unspecified) [lenalidomide] + Cn1nnc2c(C(N)=O)ncn2c1=O [temozolomide] (first compound 1 µM, partner dose 2 µM) | 60.6 | 106 | 84.9 | 61.3 | 171 | 66.4 | 51.9 | 136 | 114 | 44.3 | 235 | 84.1 | 83.3 | 277 |  | 
2 | NC(=O)Nc1cc(-c2cccc(F)c2)sc1C(=O)N[C@H]1CCCNC1 + O=C(O)C(=O)Nc1sc2c(c1C(=O)O)CCNC2 [TCS401] (first compound 0.02 µM, partner dose 1.66667 µM) | 90 | 50.1 | 90.2 | 69.7 | 111 |  | 34.5 | 78.9 | 306 | 64.8 | 110 | 62.1 | 184 | 401 | 120 | 69.3
3 | Clc1ccc(Nc2nnc(Cc3ccncc3)c3ccccc23)cc1 [vatalanib] + COc1ccc(Cl)c(Nc2nc3ccccc3nc2NS(=O)(=O)c2cccc(NC(=O)C(C)(C)N)c2)c1 [XL147] (first compound 2 µM, partner dose 0.8 µM) | 40.2 | 202 | 36.9 | 122 | 54 | 132 | 238 | 199 | 107 | 279 | 84.2 | 39.3 | 106 | 47.5 |  | 
4 | C[C@]1(c2nc3c(C(N)=O)cccc3[nH]2)CCCN1 [Veliparib] + COc1ccc2c(c1)CCC1C2CCC2(C)C(NCCCCCCN3C(=O)C=CC3=O)CCC12 [U73122] (first compound 1.4 µM, partner dose 0.4 µM) | 88.1 | 168 | 76.5 | 53.2 | 227 |  | 36.3 | 236 | 51.3 | 90.6 | 125 | 64.8 | 92.6 | 64.1 | 41.2 | 94.1
5 | COCC[n+]1c2c(n(Cc3cnccn3)c1C)C(=O)c1ccccc1C2=O + C[C@]1(c2nc3c(C(N)=O)cccc3[nH]2)CCCN1 [Veliparib] (first compound 0.0004 µM, partner dose 1.4 µM) | 424 | 83.3 | 77.6 | 172 | 84.5 | 156 | 148 | 90.7 | 134 | 91.3 | 226 | 43.6 | 106 | 60.6 |  | 
6 | CC(=O)c1c(C)c2cnc(Nc3ccc(N4CCNCC4)cn3)nc2n(C2CCCC2)c1=O [palbociclib] + Cn1c(Nc2ccc(C(F)(F)F)cc2)nc2cc(Oc3ccnc(-c4ncc(C(F)(F)F)[nH]4)c3)ccc21 [CHIR265] (first compound 0.04 µM, partner dose 0.08 µM) | 32.5 | 176 | 199 | 84.4 | 62.7 | 74.9 | 202 | 618 | 441 | 94.9 | 159 | 234 | 136 | 74 |  | 
7 | CC(=O)c1c(C)c2cnc(Nc3ccc(N4CCNCC4)cn3)nc2n(C2CCCC2)c1=O [palbociclib] + COCC[n+]1c2c(n(Cc3cnccn3)c1C)C(=O)c1ccccc1C2=O [YM155] (first compound 0.04 µM, partner dose 0.0004 µM) | 144 | 17 | 121 | 97 | 106 | 105 | 104 | 134 | 83.1 | 94.5 | 122 | 107 | 103 | 75.2 |  | 
8 | C[C@@H]1CCN(C(=O)CC#N)C[C@@H]1N(C)c1ncnc2[nH]ccc12 + O=S(=O)(c1ccccc1)N(CC(F)(F)F)c1ccc(C(O)(C(F)(F)F)C(F)(F)F)cc1 [T0901317] (first compound 1 µM, partner dose 1.4 µM) | 58.7 | 29.3 | 81 | 88.1 | 128 |  | 28.9 | 79.8 | 396 | 57.9 | 707 | 83.2 | 77.7 | 55.9 | 32.5 | 88.6
9 | CO[C@@H]1[C@H](N(C)C(=O)c2ccccc2)C[C@H]2O[C@]1(C)n1c3ccccc3c3c4c(c5c6ccccc6n2c5c31)C(=O)NC4 [Midostaurin] + O=C(O)C(=O)Nc1sc2c(c1C(=O)O)CCNC2 [TCS401] (first compound 0.08 µM, partner dose 1.66667 µM) | 189 | 51.2 | 195 | 37 | 84.3 |  | 20.3 | 29.5 | 47.3 | 124 | 103 | 33.5 | 79.5 | 107 | 63.6 | 115
10 | Cn1c(Nc2ccc(C(F)(F)F)cc2)nc2cc(Oc3ccnc(-c4ncc(C(F)(F)F)[nH]4)c3)ccc21 + Cn1cc(/C=C2\C(=O)Nc3cccnc32)c2ccccc21 [GW441756] (first compound 0.08 µM, partner dose 0.4 µM) | 118 | 285 | 73.8 | 174 | 116 |  | 49.2 | 73.1 | 824 | 107 | 130 | 128 | 144 | 136 | 71.3 | 295
11 | Nc1cccc2c1CN(C1CCC(=O)NC1=O)C2=O (stereo unspecified) [lenalidomide] + COc1ccc2c(c1)CCC1C2CCC2(C)C(NCCCCCCN3C(=O)C=CC3=O)CCC12 [U73122] (first compound 1 µM, partner dose 0.4 µM) | 75.2 | 62.7 | 149 | 62.8 | 107 |  | 71 | 80.4 | 116 | 148 | 114 | 245 | 104 | 55.5 | 211 | 153
12 | OCc1c[nH]c2ccccc12 [Indole-3-carbinol] + Cn1c(Nc2ccc(C(F)(F)F)cc2)nc2cc(Oc3ccnc(-c4ncc(C(F)(F)F)[nH]4)c3)ccc21 [CHIR265] (first compound 0.8 µM, partner dose 0.08 µM) | 90.3 | 199 | 68.3 | 264 | 103 | 147 | 35.7 | 158 | 328 | 85.6 | 130 | 115 | 178 | 65.2 |  | 
13 | Clc1ccc(Nc2nnc(Cc3ccncc3)c3ccccc23)cc1 [vatalanib] + Cn1nnc2c(C(N)=O)ncn2c1=O [temozolomide] (first compound 2 µM, partner dose 2 µM) | 99.1 | 187 | 71.1 | 185 | 99.4 | 52.5 | 115 | 155 | 84.5 | 70.7 | 108 | 22.8 | 126 | 64.5 |  | 
14 | COCC[n+]1c2c(n(Cc3cnccn3)c1C)C(=O)c1ccccc1C2=O + Cn1cc(/C=C2\C(=O)Nc3cccnc32)c2ccccc21 [GW441756] (first compound 0.0004 µM, partner dose 0.4 µM) | 134 | 81 | 332 | 65.7 | 103 |  | 31.6 | 177 | 115 | 112 | 96.3 | 69.5 | 299 | 74 | 68.8 | 81.8
15 | C#Cc1cccc(Nc2ncnc3cc(OCCOC)c(OCCOC)cc23)c1 [erlotinib] + Cc1nc(Nc2ncc(C(=O)Nc3c(C)cccc3Cl)s2)cc(N2CCN(CCO)CC2)n1 [dasatanib] (first compound 0.8 µM, partner dose 0.004 µM) | 133 | 108 | 37.6 | 184 | 79.2 | 46.8 | 71.9 | 191 | 271 | 39.8 | 132 | 62.8 | 92.3 | 264 |  | 
16 | OCc1c[nH]c2ccccc12 [Indole-3-carbinol] + Cc1nc(Nc2ncc(C(=O)Nc3c(C)cccc3Cl)s2)cc(N2CCN(CCO)CC2)n1 [dasatanib] (first compound 0.8 µM, partner dose 0.004 µM) | 184 | 92.9 | 219 | 147 | 106 | 79.1 | 36.2 | 225 | 89 | 178 | 142 | 70 | 99.4 | 204 |  | 
17 | COc1cc(Nc2ncc(F)c(Nc3ccc4c(n3)NC(=O)C(C)(C)O4)n2)cc(OC)c1OC [Tamatinib] + O=C(O)C(=O)Nc1sc2c(c1C(=O)O)CCNC2 [TCS401] (first compound 0.4 µM, partner dose 1.66667 µM) | 82.5 | 181 | 93.9 | 129 | 199 |  | 47.1 | 77.2 | 104 | 28.5 | 173 | 92.6 | 89 | 61.1 | 68 | 269
18 | OCCn1cc(-c2cnc3nnn(Cc4ccc5ncccc5c4)c3n2)cn1 + CC(C)CCN1c2nc(Nc3cc(F)c(O)c(F)c3)ncc2N(C)C(=O)C1C [BID1870] (first compound 1 µM, partner dose 0.2 µM) | 29.6 | 50.9 | 20.2 | 41.7 | 123 |  | 214 | 75.4 | 135 | 82.5 | 95.4 | 224 | 88 | 388 | 57.2 | 59.3
19 | C=CCn1c(=O)c2cnc(Nc3ccc(N4CCN(C)CC4)cc3)nc2n1-c1cccc(C(C)(C)O)n1 + COc1ccc(-c2ccc3c(N4CCOCC4)nc(N4C[C@@H](C)O[C@@H](C)C4)nc3n2)cc1CO [KU0063794] (first compound 0.02 µM, partner dose 0.02 µM) | 69.5 | 112 | 81.8 | 156 | 145 |  | 37.9 | 42.9 | 174 | 102 | 118 | 71.8 | 148 | 102 | 74.9 | 112
20 | C#Cc1cccc(Nc2ncnc3cc(OCCOC)c(OCCOC)cc23)c1 [erlotinib] + Oc1cc(-c2nc(-c3ccccc3)[nH]c2-c2ccncc2)ccc1Cl [L779450] (first compound 0.8 µM, partner dose 0.2 µM) | 39 | 108 | 84.1 | 97.5 | 110 |  | 16.1 | 85.8 | 78.8 | 114 | 135 | 93.1 | 133 | 58.5 | 36.6 | 125

Exported as a markdown table: part of the list above.

| Row | Structure (SMILES) | cleaved PARP positive nuclei fraction [1] [%] | cleaved PARP positive nuclei fraction [2] [%] | cleaved PARP positive nuclei fraction [3] [%] | cleaved PARP positive nuclei fraction [4] [%] | cleaved PARP positive nuclei fraction [5] [%] | cleaved PARP positive nuclei fraction [6] [%] | cleaved PARP positive nuclei fraction [7] [%] | cleaved PARP positive nuclei fraction [8] [%] | cleaved PARP positive nuclei fraction [9] [%] | cleaved PARP positive nuclei fraction [10] [%] | cleaved PARP positive nuclei fraction [11] [%] | cleaved PARP positive nuclei fraction [12] [%] | cleaved PARP positive nuclei fraction [13] [%] | cleaved PARP positive nuclei fraction [14] [%] | cleaved PARP positive nuclei fraction [15] [%] | cleaved PARP positive nuclei fraction [16] [%] |
| --- | --- | --- | --- | --- | --- | --- | --- | --- | --- | --- | --- | --- | --- | --- | --- | --- | --- |
| 3 | Clc1ccc(Nc2nnc(Cc3ccncc3)c3ccccc23)cc1 [vatalanib] + COc1ccc(Cl)c(Nc2nc3ccccc3nc2NS(=O)(=O)c2cccc(NC(=O)C(C)(C)N)c2)c1 [XL147] (first compound 2 µM, partner dose 0.8 µM) | 40.2 | 202 | 36.9 | 122 | 54 | 132 | 238 | 199 | 107 | 279 | 84.2 | 39.3 | 106 | 47.5 |  |  |
| 7 | CC(=O)c1c(C)c2cnc(Nc3ccc(N4CCNCC4)cn3)nc2n(C2CCCC2)c1=O [palbociclib] + COCC[n+]1c2c(n(Cc3cnccn3)c1C)C(=O)c1ccccc1C2=O [YM155] (first compound 0.04 µM, partner dose 0.0004 µM) | 144 | 17 | 121 | 97 | 106 | 105 | 104 | 134 | 83.1 | 94.5 | 122 | 107 | 103 | 75.2 |  |  |
